In article PMC7356028:
No constants are given. Whether binding was seen depends on the method and setting. Binding seen in cells or lysates may run through a third protein. Some entries that bind do so weakly or less than the wild type. Tags and fused reporters may be left off the sequences shown.

Sequences of proteins named here, by UniProt entry; tags and fusion partners are left off.
UniProt Q92621: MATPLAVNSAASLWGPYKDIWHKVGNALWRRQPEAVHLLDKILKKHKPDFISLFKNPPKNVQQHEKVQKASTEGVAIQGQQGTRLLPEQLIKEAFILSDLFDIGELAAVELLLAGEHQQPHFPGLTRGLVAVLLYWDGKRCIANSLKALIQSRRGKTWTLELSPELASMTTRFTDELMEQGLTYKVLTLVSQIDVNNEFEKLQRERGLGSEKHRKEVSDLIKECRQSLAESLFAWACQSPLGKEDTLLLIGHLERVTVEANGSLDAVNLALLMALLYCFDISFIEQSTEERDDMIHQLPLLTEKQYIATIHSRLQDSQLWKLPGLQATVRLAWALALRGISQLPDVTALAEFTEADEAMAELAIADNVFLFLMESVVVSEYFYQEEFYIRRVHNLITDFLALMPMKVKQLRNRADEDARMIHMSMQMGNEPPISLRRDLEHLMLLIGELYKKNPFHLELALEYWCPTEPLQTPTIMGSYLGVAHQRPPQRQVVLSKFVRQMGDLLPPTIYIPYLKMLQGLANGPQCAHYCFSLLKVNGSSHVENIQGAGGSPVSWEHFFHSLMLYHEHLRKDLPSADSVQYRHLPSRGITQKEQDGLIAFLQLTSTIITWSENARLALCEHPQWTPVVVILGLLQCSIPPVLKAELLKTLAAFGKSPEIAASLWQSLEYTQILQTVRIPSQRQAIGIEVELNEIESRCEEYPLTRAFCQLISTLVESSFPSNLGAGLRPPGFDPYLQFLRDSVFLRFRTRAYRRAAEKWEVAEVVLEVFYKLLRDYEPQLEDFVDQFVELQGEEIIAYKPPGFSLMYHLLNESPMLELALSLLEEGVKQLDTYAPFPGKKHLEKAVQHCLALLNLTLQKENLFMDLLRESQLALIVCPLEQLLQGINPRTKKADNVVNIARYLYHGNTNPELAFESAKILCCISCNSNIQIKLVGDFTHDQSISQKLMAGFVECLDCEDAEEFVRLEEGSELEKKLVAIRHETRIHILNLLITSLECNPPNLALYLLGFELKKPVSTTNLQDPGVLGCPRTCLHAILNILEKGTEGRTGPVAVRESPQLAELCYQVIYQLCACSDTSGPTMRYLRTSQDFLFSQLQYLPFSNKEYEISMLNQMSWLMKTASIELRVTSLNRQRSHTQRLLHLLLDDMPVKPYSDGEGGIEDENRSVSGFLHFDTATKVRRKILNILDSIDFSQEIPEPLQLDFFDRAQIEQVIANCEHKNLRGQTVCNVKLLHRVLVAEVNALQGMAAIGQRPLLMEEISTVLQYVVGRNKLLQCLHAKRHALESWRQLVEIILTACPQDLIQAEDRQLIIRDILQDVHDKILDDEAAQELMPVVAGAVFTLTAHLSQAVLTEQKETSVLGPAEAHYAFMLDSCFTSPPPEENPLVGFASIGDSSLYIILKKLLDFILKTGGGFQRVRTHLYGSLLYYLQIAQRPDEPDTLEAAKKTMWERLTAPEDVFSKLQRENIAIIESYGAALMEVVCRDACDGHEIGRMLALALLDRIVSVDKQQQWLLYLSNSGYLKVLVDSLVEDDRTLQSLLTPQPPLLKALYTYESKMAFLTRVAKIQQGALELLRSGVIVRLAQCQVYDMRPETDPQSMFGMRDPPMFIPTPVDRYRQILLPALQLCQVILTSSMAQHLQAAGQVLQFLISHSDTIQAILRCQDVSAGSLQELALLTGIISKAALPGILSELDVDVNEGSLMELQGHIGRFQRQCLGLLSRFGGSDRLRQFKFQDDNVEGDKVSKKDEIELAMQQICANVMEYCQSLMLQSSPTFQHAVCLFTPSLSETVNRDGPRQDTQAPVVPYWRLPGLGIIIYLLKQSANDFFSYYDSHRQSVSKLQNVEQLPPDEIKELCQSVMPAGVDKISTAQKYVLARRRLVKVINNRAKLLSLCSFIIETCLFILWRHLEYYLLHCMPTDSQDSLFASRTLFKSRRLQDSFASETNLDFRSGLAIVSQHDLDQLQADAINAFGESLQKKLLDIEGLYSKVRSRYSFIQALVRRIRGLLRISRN

How the values were obtained:
Assay in all cases: co-IP; GFP-fused Nup93 fragments expressed in HEK293F; 1 mg of lysate supernatant incubated 4 h with glutathione beads pre-bound with GST-tagged anti-GFP nanobody; washed thrice with lysis buffer (1X DPBS, 0.2% tween 20), eluted with reduced glutathione; blots probed with anti-Nup205 and anti-GFP; the paper calls it immunoprecipitation and in vitro pull-down
[1] = biological target: T1, GFP-fused human Nup93 R2 fragment (96-150) (human) (UniProt Q8N1F7)
T1 sequence: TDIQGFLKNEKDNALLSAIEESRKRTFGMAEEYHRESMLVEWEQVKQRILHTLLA

[2] = biological target: T2, GFP-fused human Nup93 N-terminal region (1-150) (human) (UniProt Q8N1F7)
T2 sequence: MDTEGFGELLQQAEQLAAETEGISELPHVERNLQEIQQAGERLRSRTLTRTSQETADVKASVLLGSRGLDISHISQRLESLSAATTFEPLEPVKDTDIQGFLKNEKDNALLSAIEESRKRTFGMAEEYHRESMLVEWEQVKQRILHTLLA

[3] = biological target: T3, GFP-fused human Nup93 region (176-819) (human) (UniProt Q8N1F7)
T3 sequence: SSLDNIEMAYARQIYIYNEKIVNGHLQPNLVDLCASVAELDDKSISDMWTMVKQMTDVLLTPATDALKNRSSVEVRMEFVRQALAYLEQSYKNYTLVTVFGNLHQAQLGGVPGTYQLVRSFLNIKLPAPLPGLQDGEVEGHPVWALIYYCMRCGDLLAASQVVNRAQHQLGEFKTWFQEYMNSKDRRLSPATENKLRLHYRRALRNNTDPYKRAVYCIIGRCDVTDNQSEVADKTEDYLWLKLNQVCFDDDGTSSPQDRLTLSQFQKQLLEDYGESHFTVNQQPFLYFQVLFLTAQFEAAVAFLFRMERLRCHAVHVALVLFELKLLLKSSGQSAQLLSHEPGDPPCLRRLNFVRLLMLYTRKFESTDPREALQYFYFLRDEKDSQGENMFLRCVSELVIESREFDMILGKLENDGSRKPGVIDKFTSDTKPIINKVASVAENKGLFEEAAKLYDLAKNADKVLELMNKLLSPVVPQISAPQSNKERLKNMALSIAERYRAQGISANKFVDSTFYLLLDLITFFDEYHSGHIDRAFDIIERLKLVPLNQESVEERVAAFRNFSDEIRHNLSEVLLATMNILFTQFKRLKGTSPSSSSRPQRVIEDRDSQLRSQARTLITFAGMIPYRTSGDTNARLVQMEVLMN

binding [1]: binds
binding [2]: binds
binding [3]: binds weakly
Substance: endogenous Nup205 (from UniProt Q92621 1-2012)
